The subject of the test is BDF1 mice, Adenocarcinoma 755 s.c., tumor weight T/C. The experiment in a line: NCI In Vivo Anticancer Drug Screen. Data for tumor model Adenocarcinoma 755 (subcutaneous) in B6D2F1 (BDF1) mice. To be noted: T/C endpoint: mean tumor weight, schedule: Q01DX011 (ip), evaluation day not shown, higher T/C = larger tumour. The procedure, abridged:
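Tumor-bearing mice receive test compound while controls get vehicle alone. Antitumor effect is scored from survival or tumor dimensions as a T/C quotient.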

The mark [1] stands for this setting: dose: 1.5 mg/kg/injection, vehicle: methylcellulose (MC).

SMILES strings stand for the structures. The list is a part of this screen's results and no random one: it covers a few groups of compounds. Not every dose and run of a compound is shown. T/C is the treated group as % of the vehicle group. Some T/C values are marked as having no survivor count here; that says nothing about deaths at the dose. Schedule codes are those of the source, read here as Q, the interval in days (D) or hours (H), X, the number of doses. Some doses were run more than once; the results are listed from low to high.

Consider `Cc1cc(C)c2nc(CN(CCCl)CCCl)[nH]c2c1`, for which the T/C by setting is: (dose: 0.19 mg/kg/injection, vehicle: methylcellulose (MC)) 65 % of control [survivor count not shown]; (dose: 0.38 mg/kg/injection, vehicle: methylcellulose (MC)) 70 % of control [survivor count not shown]; (dose: 0.75 mg/kg/injection, vehicle: methylcellulose (MC)) 19 % of control [survivor count not shown]; (dose: 1.0 mg/kg/injection, vehicle: methylcellulose (MC)) 65 % of control [survivor count not shown]; under setting [1], 41 % of control [survivor count not shown]; (dose: 3.0 mg/kg/injection, vehicle: carboxymethylcellulose (CMC)) 66 % of control [survivor count not shown]. The T/C (dose: 3.0 mg/kg/injection, vehicle: methylcellulose (MC)) was 35 % of control [survivor count not shown]; the T/C (dose: 3.2 mg/kg/injection, vehicle: methylcellulose (MC)) was 38 [survivor count not shown] and 108 % of control [survivor count not shown]; the T/C (dose: 6.0 mg/kg/injection, vehicle: carboxymethylcellulose (CMC)) was 55 % of control [survivor count not shown]; the T/C (dose: 6.0 mg/kg/injection, vehicle: methylcellulose (MC)) was 44 % of control [survivor count not shown]; the T/C (dose: 6.5 mg/kg/injection, vehicle: methylcellulose (MC)) was 32 [survivor count not shown] and 85 % of control [survivor count not shown]; the T/C (dose: 12.0 mg/kg/injection, vehicle: carboxymethylcellulose (CMC)) is 43 [survivor count not shown] and 149 % of control [survivor count not shown]. Also, the T/C runs as follows: (dose: 13.0 mg/kg/injection, vehicle: methylcellulose (MC)) 7 [survivor count not shown] and 47 % of control [survivor count not shown]; (dose: 24.0 mg/kg/injection, vehicle: carboxymethylcellulose (CMC)) 36 [survivor count not shown] and 111 % of control [survivor count not shown].

With `Oc1ccc(Cl)cc1CN(CCCl)CCCl`, the T/C runs as follows: under setting [1], 65 % of control [survivor count not shown]; (dose: 2.3 mg/kg/injection, vehicle: methylcellulose (MC)) 56 % of control [survivor count not shown]; (dose: 2.8 mg/kg/injection, vehicle: saline) 105 % of control [survivor count not shown]; (dose: 3.5 mg/kg/injection, vehicle: methylcellulose (MC)) 56 % of control [survivor count not shown]; (dose: 5.3 mg/kg/injection, vehicle: methylcellulose (MC)) 27 % of control [survivor count not shown]; (dose: 5.5 mg/kg/injection, vehicle: saline) 86 % of control [survivor count not shown]. Also, the T/C (dose: 8.0 mg/kg/injection, vehicle: methylcellulose (MC)) was 33 % of control [survivor count not shown]; the T/C (dose: 11.0 mg/kg/injection, vehicle: saline) is 25 % of control [survivor count not shown]; the T/C (dose: 12.0 mg/kg/injection, vehicle: methylcellulose (MC)) was 26 % of control [survivor count not shown]; the T/C (dose: 18.0 mg/kg/injection, vehicle: methylcellulose (MC)) was 19 % of control [survivor count not shown]; the T/C (dose: 27.0 mg/kg/injection, vehicle: methylcellulose (MC)) was 19 % of control [survivor count not shown].

As to `ClCCNCCCl`, the T/C is 57 % of control [survivor count not shown] (dose: 12.5 mg/kg/injection, vehicle: carboxymethylcellulose (CMC)); 54 % of control [survivor count not shown] (dose: 25.0 mg/kg/injection, vehicle: carboxymethylcellulose (CMC)); 12 % of control [survivor count not shown] (dose: 50.0 mg/kg/injection, vehicle: carboxymethylcellulose (CMC)).
